# Source: the supplement of paper PMC9135407
# Several values for one entry are separate records, joined by “and”; a condition that tells them apart may be missing. Equal values may be shown once. Where a name gives a salt, the structure may show the parent alone. ± gives the standard deviation of the averaged measurements. Some of the results follow. Part of the spread comes from offsets between plates or batches.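 Primary human stellate myofibroblasts activated in culture; inactivation shown by regained lipid droplets. Readout: fraction of Hoechst-counted cells exceeding a per-plate Bodipy threshold, duplicate wells, each plate with DMSO negative and nortriptyline positive controls. Hits: control-normalized score beyond the plate's top-tenth-percentile nortriptyline wells, or among its three best wells. Final well concentrations unstated.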
# System: primary human hepatic stellate cells (donor 1)
# Assay: percent Bodipy-positive cells; higher = more lipid droplet accumulation
# Conditions: 48 h
# [1] = library stock concentration: 10 mM
# [2] = library stock concentration: 1 mM
# [3] = library stock concentration: 2 mM
# [4] = library stock concentration: 3.33 mM
# [5] = library stock concentration: 4.8 mM
# [6] = library stock concentration: 7.5 mM
compound,measurement,setting,value
Nc1ccc(-c2ccc3ccccc3n2)cc1 [BF-170 hydrochloride],percent Bodipy-positive cells,[1],32.6 ± 2.4%
OC1C[C@@H]2[C@@H](CC[C@@H](O)CCc3ccccc3)[C@H](O)C[C@@H]2O1 (some centres undefined) [Latanoprost Lactol],percent Bodipy-positive cells,[2],13.5 ± 3%
CS(=O)(=O)CCNCc1ccc(-c2ccc3ncnc(Nc4ccc(OCc5cccc(F)c5)c(Cl)c4)c3c2)o1,percent Bodipy-positive cells,[3],96.54 ± 0.54%
CCCCOC(=O)c1ccc(N)cc1 [Butamben],percent Bodipy-positive cells,,11.2 ± 0.17%
same,percent Bodipy-positive cells,[1],25 ± 3.8%
CCCCC[C@H](O)/C=C/[C@H]1C=CC(=O)[C@@H]1CCCCCCC(=O)O [Prostaglandin A1],percent Bodipy-positive cells,[2],10.4% and 6.21%
O=C(Nc1ccc(C(=O)O)c(O)c1)c1ccccc1 [Benzoylpas],percent Bodipy-positive cells,library stock concentration: 7.8 mM,19.4 ± 5.4%
Cc1ccc(S(=O)(=O)n2c(N)nc3ccccc32)cc1 [ML130 (Nodinitib-1)],percent Bodipy-positive cells,[4],6.35 ± 1.4%
same,percent Bodipy-positive cells,[1],9.67 ± 4.6%
"Cn1c(=O)c2[nH]c(C3CCCC3)nc2n(C)c1=O [8-Cyclopentyl-1,3-dimethylxanthine]",percent Bodipy-positive cells,[1],55.8 ± 5.6%
CC(C)COCC(CN(Cc1ccccc1)c1ccccc1)N1CCCC1 (centres undefined) [Bepridil hydrochloride],percent Bodipy-positive cells,,83 ± 11%
same,percent Bodipy-positive cells,library stock concentration: 5 mM,84.9 ± 4%
same,percent Bodipy-positive cells,[1],52.3% and 61%
C=NC(C(=O)NC1C(=O)N2C1SC(C)(C)C2C(=O)O)c1ccccc1 (centres undefined) [Metampicillin sodium],percent Bodipy-positive cells,[1],20.7 ± 0.25%
NC(=O)c1ncn([C@@H]2O[C@H](CO)[C@@H](O)[C@H]2O)n1 [Ribavirin],percent Bodipy-positive cells,,10.9 ± 3.2%
same,percent Bodipy-positive cells,[4],10.1 ± 7.4%
CCC(CC)(CC(=O)Nc1cccc(/C=C/c2nc(C3CCC3)cs2)c1)C(=O)O [Cinalukast],percent Bodipy-positive cells,[1],6.25 ± 1.1%
CCOc1ccc2c(c1)C(C)=CC(C)(C)N2 [Ethoxyquin],percent Bodipy-positive cells,,13.9 ± 1.4%
same,percent Bodipy-positive cells,[1],36.7 ± 13%
CCCCCCCCCCCCCCCCNc1ccc(C(=O)O)cc1 [Cetaben],percent Bodipy-positive cells,[2],5.84 ± 1.9%
O=C(NCc1ccncc1)C12CC3CC(C1)CC(c1ccc(Cl)cc1)(C3)C2,percent Bodipy-positive cells,library stock concentration: 13.1 mM,46.7 ± 6%
CCOC(=O)[C@H](CCc1ccccc1)N[C@@H](C)C(=O)N1[C@H](C(=O)O)C[C@@H]2CCC[C@@H]21 [Ramipril],percent Bodipy-positive cells,,8.39 ± 2.1%
same,percent Bodipy-positive cells,[4],21.2 ± 2.6%
same,percent Bodipy-positive cells,[5],8.37% and 11.5%
same,percent Bodipy-positive cells,[1],15.2 ± 0.77%
CCOC(=O)[C@H](CCc1ccccc1)N[C@@H](C)C(=O)N1[C@H](C(=O)O)C[C@@H]2CCC[C@@H]21,percent Bodipy-positive cells,[1],9.52% and 33.6%
COc1ccc(-c2cnc3c(-c4cccc5ncccc45)cnn3c2)cc1,percent Bodipy-positive cells,[4],65.1 ± 8.6%
same,percent Bodipy-positive cells,[1],72.5 ± 17%
NS(=O)(=O)c1cc2c(cc1Cl)N=CNS2(=O)=O [Chlorothiazide],percent Bodipy-positive cells,,30.2 ± 12%
same,percent Bodipy-positive cells,[4],8.14 ± 1.5%
same,percent Bodipy-positive cells,library stock concentration: 6.8 mM,2.71 ± 0.8%
CNS(=O)(=O)Cc1ccc2[nH]cc(CCN(C)C)c2c1 [Sumatriptan Succinate],percent Bodipy-positive cells,[5],4.76 ± 0.48%
CNS(=O)(=O)Cc1ccc2[nH]cc(CCN(C)C)c2c1 [Sumatriptan succinate],percent Bodipy-positive cells,[1],11.2 ± 0.31%
CNS(=O)(=O)Cc1ccc2[nH]cc(CCN(C)C)c2c1,percent Bodipy-positive cells,[1],10.8 ± 5%
O=c1c(O)c(-c2ccc(O)c(O)c2)oc2cc(O)ccc12 [Fisetin],percent Bodipy-positive cells,[4],10.6 ± 2.5%
same,percent Bodipy-positive cells,[1],16.9 ± 2.1%
COc1cc2ncnc(Oc3cccc(NC(=O)Nc4cc(C(C)(C)C(F)(F)F)on4)c3)c2cc1OC,percent Bodipy-positive cells,[4],28.4 ± 3.4%
same,percent Bodipy-positive cells,[1],40.2 ± 14%
CCCCCCCCCCCCCCCCCCCCCCC(=O)OCC [Ethyl Tricosanoate],percent Bodipy-positive cells,[2],7.57 ± 2.2%
CN[C@H](CC(C)C)C(=O)N[C@H]1C(=O)N[C@@H](CC(N)=O)C(=O)N[C@H]2C(=O)N[C@H]3C(=O)N[C@H](C(=O)N[C@H](C(=O)O)c4cc(O)cc(O)c4-c4cc3ccc4O)[C@H](O)c3ccc(c(Cl)c3)Oc3cc2cc(c3O[C@@H]2O[C@H](CO)[C@@H](O)[C@H](O)[C@H]2O[C@H]2C[C@](C)(N)[C@H](O)[C@H](C)O2)Oc2ccc(cc2Cl)[C@H]1O [Vancomycin hydrochloride from Streptomyces orientalis],percent Bodipy-positive cells,[1],14.1 ± 0.41%
CN[C@H](CC(C)C)C(=O)N[C@H]1C(=O)N[C@@H](CC(N)=O)C(=O)N[C@H]2C(=O)N[C@H]3C(=O)N[C@H](C(=O)N[C@H](C(=O)O)c4cc(O)cc(O)c4-c4cc3ccc4O)[C@H](O)c3ccc(c(Cl)c3)Oc3cc2cc(c3O[C@@H]2O[C@H](CO)[C@@H](O)[C@H](O)[C@H]2O[C@H]2C[C@](C)(N)[C@H](O)[C@H](C)O2)Oc2ccc(cc2Cl)[C@H]1O [Vancomycin hydrochloride],percent Bodipy-positive cells,,41.1 ± 5%
same,percent Bodipy-positive cells,[1],23.9 ± 3.7%
"CCCCCCCCC=CCC=CCC=CCCCC(=O)O [5(Z),8(Z),11(Z)-Eicosatrienoic Acid]",percent Bodipy-positive cells,[2],18.9 ± 5.3%
COc1cc2ncnc(Nc3ccc(F)c(Cl)c3)c2cc1NC(=O)C=CCN1CCCCC1,percent Bodipy-positive cells,[3],72 ± 13%
same,percent Bodipy-positive cells,[1],99.345 ± 0.036%
COc1ccc(-c2nc3cc(C4=NNC(=O)CC4C)ccc3[nH]2)cc1 (centres undefined) [Pimobendan],percent Bodipy-positive cells,[4],10.3 ± 4.2%
same,percent Bodipy-positive cells,[1],34.3 ± 3.1%
NCC(=O)Nc1ccc(-n2nc(C(F)(F)F)cc2-c2ccc3c(ccc4ccccc43)c2)cc1,percent Bodipy-positive cells,[4],86.4 ± 14%
same,percent Bodipy-positive cells,[1],50.2 ± 20%
CN1CCC[C@@H]1CCO[C@](C)(c1ccccc1)c1ccc(Cl)cc1.O=C(O)/C=C/C(=O)O [Clemastine fumarate],percent Bodipy-positive cells,[1],70.2 ± 9.5%
S=C1SCN(Cc2ccccc2)CN1Cc1ccccc1,percent Bodipy-positive cells,[1],37.2 ± 1.1%
CNCc1ccc(-c2[nH]c3cc(F)cc4c3c2CCNC4=O)cc1.O=P(O)(O)O [Rucaparib],percent Bodipy-positive cells,[1],99.09 ± 0.39%
CCc1cncnc1N1CCN(Cc2nc3ccc(C(F)(F)F)cc3[nH]2)CC1,percent Bodipy-positive cells,library stock concentration: 80 uM,10.8 ± 10%
same,percent Bodipy-positive cells,library stock concentration: 400 uM,11.1 ± 8.2%
same,percent Bodipy-positive cells,[3],6.11 ± 0.2%
same,percent Bodipy-positive cells,[4],8.01 ± 0.64%
same,percent Bodipy-positive cells,[1],30% and 23.3%
"CCS(=O)(=O)N(C)[C@H]1c2cc(C#N)ccc2OC(C)(C)[C@@H]1O [(-)-[3R,4S]-Chromanol 293B]",percent Bodipy-positive cells,[1],4.74 ± 0.67%
Cc1cc(C2CCCCC2)n(O)c(=O)c1 [Ciclopirox olamine],percent Bodipy-positive cells,[6],11.3 ± 1.8%
same,percent Bodipy-positive cells,[1],30.1 ± 4.1%
Cc1cc(C2CCCCC2)n(O)c(=O)c1 [Ciclopirox ethanolamine],percent Bodipy-positive cells,,52.7 ± 1.4%
same,percent Bodipy-positive cells,[4],26.1 ± 0.89%
same,percent Bodipy-positive cells,[1],39.7 ± 6.6%
Cc1cc(C2CCCCC2)n(O)c(=O)c1 [Ciclopirox],percent Bodipy-positive cells,[4],14.5 ± 3.9%
same,percent Bodipy-positive cells,[1],31.2 ± 0.41%
CC1=C(C(=O)OC(C)C)C(c2cccc([N+](=O)[O-])c2)C(C(=O)OC2CN(C(c3ccccc3)c3ccccc3)C2)=C(N)N1 (centres undefined) [Azelnidipine],percent Bodipy-positive cells,[4],3.252 ± 0.022%
same,percent Bodipy-positive cells,[1],46.3 ± 15%
COc1cc(C(=O)NS(=O)(=O)c2ccccc2C)ccc1Cc1cn(C)c2ccc(NC(=O)OC3CCCC3)cc12,percent Bodipy-positive cells,[1],5.96 ± 2.3%
COc1cc(C(=O)NS(=O)(=O)c2ccccc2C)ccc1Cc1cn(C)c2ccc(NC(=O)OC3CCCC3)cc12 [Zafirlukast],percent Bodipy-positive cells,[2],7.41 ± 1.7%
same,percent Bodipy-positive cells,[4],10.8 ± 3.8%
same,percent Bodipy-positive cells,library stock concentration: 3.5 mM,9.715 ± 0.0042%
same,percent Bodipy-positive cells,[1],11.4 ± 5.5%
CC(C)OC(=O)CCC/C=C\C[C@@H]1[C@@H](/C=C/[C@H](O)C2Cc3ccccc3C2)[C@@H](F)C[C@@H]1O [AL 8810 isopropyl ester],percent Bodipy-positive cells,[2],12.3 ± 0.5%
CN[C@H]1CN(c2ccc3c(=O)c(C(=O)O)cn(-c4nccs4)c3n2)C[C@@H]1OC [Voreloxin (SNS-595)],percent Bodipy-positive cells,[4],33 ± 1.2%
same,percent Bodipy-positive cells,[1],72.2 ± 1.5%
CCOc1cc([C@@H](CS(C)(=O)=O)N2C(=O)c3cccc(NC(C)=O)c3C2=O)ccc1OC,percent Bodipy-positive cells,[4],38.1 ± 3.7%
same,percent Bodipy-positive cells,[1],36.2 ± 2.2%
CCCCCCCCCCCCC/C=C/[C@@H](O)[C@H](CO)NC(C)=O [C-2 Ceramide],percent Bodipy-positive cells,[2],12.1 ± 5%
CCCCCCCCCCCCC/C=C/[C@@H](O)[C@H](CO)NC(C)=O [C2 Ceramide],percent Bodipy-positive cells,[2],27.8 ± 30%
O=C(O)c1cc(=O)c2ccccc2o1 [Chromocarb],percent Bodipy-positive cells,[4],9.91 ± 3%
same,percent Bodipy-positive cells,[1],32.1% and 26.9%
c1ccc(-c2cnc(Nc3ccc(OCCN4CCCC4)cc3)s2)cc1 [Flt-3 Inhibitor III],percent Bodipy-positive cells,[4],85.8 ± 0.47%
CCCCC[C@H](O)/C=C/C1=C(C/C=C\CCCC(=O)O)C(=O)CC1 [Prostaglandin B2],percent Bodipy-positive cells,[2],15.1% and 15.3%
NC(=S)c1ccc[n+]([C@@H]2O[C@@H](COP(=O)([O-])OP(=O)(O)OC[C@H]3O[C@@H](n4cnc5c(N)ncnc54)C(OP(=O)(O)O)[C@H]3O)C(O)C2O)c1 (some centres undefined) [Thio-NADP sodium],percent Bodipy-positive cells,[1],21.7 ± 4.3%
"NC(N)=NCCNS(=O)(=O)c1cccc2cnccc12 [HA 1004, Dihydrochloride]",percent Bodipy-positive cells,[4],8.43 ± 2.4%
NC(N)=NCCNS(=O)(=O)c1cccc2cnccc12,percent Bodipy-positive cells,library stock concentration: 17 mM,8.04 ± 2.6%
Cc1c(C(N)=O)cc([N+](=O)[O-])cc1[N+](=O)[O-] [Dinitolmide],percent Bodipy-positive cells,[4],10.5 ± 1.6%
same,percent Bodipy-positive cells,[1],23.9% and 27.7%
CCCCC[C@H](O)/C=C/[C@@H]1[C@H]2C[C@@H](CCCCC(=O)O)O[C@H]2C[C@H]1O [6.alpha.-Prostaglandin I1],percent Bodipy-positive cells,[2],16.3 ± 0.47%
CNC(=O)[C@H]1O[C@@H](n2cnc3c(NCc4cccc(I)c4)ncnc32)[C@H](O)[C@@H]1O,percent Bodipy-positive cells,[1],20.6% and 5.62%
C=C[C@H]1CN2CC[C@H]1C[C@@H]2[C@@H](O)c1ccnc2ccc(OC)cc12 [Quinidine gluconate],percent Bodipy-positive cells,[1],38.4 ± 7.6%
C=C[C@H]1CN2CC[C@H]1C[C@@H]2[C@@H](O)c1ccnc2ccc(OC)cc12 [Quinidine sulfate],percent Bodipy-positive cells,[1],58.7 ± 6.2%
C=C[C@H]1CN2CC[C@H]1C[C@@H]2[C@@H](O)c1ccnc2ccc(OC)cc12 [Quinidine hydrochloride monohydrate],percent Bodipy-positive cells,,51.9 ± 14%
same,percent Bodipy-positive cells,[1],68.1 ± 2.2%
C[C@]12CC[C@H]3C(=CCc4cc(O)ccc43)[C@@H]1CCC2=O [Equilin],percent Bodipy-positive cells,,15.9 ± 1.1%
same,percent Bodipy-positive cells,[6],4.87 ± 4.3%
same,percent Bodipy-positive cells,[1],18.4 ± 3.4%
C[C@]12C=CC(=O)C=C1CC[C@@H]1[C@@H]2[C@@H](O)C[C@@]2(C)[C@H]1CC[C@]2(O)C(=O)COP(=O)(O)O,percent Bodipy-positive cells,[1],32.4 ± 4%
N=C(N)N [Guanidine HCl],percent Bodipy-positive cells,[4],12.4 ± 0.069%
same,percent Bodipy-positive cells,[1],25.2 ± 6.8%
N=C(N)N,percent Bodipy-positive cells,[1],29.81 ± 0.082%
CC(C)OC(=O)CCC/C=C\C[C@@H]1[C@@H](/C=C/[C@@H](O)CCc2ccccc2)[C@H](O)C[C@@H]1O [17-phenyl trinor Prostaglandin F2.alpha. isopropyl ester],percent Bodipy-positive cells,[2],20.6 ± 3.3%
N#Cc1ccc2[nH]cc(CCCCN3CCN(c4ccc5oc(C(N)=O)cc5c4)CC3)c2c1 [Vilazodone HCl],percent Bodipy-positive cells,[4],64.1 ± 4.5%
CCCCC/C=C\C/C=C\CCCCCCCC(=O)OCC(COC(=O)CCCCCCCCCCCCCCC)OC(=O)CCCCCCC/C=C\CCCCCCCC (racemic) [1-Palmitoyl-2-oleoyl-3-linoleoyl-rac-glycerol],percent Bodipy-positive cells,[2],5.36 ± 1.3%
